# According to PubChem BioAssay AID652054 (National Center for Advancing Translational Sciences (NCATS), 2013):
# Chains of the proteins cited; added tags and fusions are not shown.
# UniProt P35462, whole entry, looked up: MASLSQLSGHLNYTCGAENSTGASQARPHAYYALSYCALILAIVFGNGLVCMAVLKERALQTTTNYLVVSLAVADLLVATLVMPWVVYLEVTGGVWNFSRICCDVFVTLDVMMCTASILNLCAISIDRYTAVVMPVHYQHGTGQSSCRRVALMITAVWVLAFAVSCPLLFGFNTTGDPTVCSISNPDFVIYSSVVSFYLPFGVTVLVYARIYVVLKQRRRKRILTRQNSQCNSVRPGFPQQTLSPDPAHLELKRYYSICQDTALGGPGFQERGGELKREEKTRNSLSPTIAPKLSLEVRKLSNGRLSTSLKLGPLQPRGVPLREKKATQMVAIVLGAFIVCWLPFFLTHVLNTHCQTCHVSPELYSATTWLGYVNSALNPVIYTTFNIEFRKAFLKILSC
# Out of some 360,000 compounds screened, about 9,100 (2.5%) were called active. The shares of active, inactive and inconclusive entries below differ from those in the screen. Cut-off read from the data, not from the text of the source: active = max response below about -50%; inconclusive = no clear call, values can overlap the other calls; inactive = above that.
# Biological target: D(3) dopamine receptor (Homo sapiens) (UniProt P35462)
# Test: qHTS of D3 Dopamine Receptor Antagonist: qHTS
# Conditions: D3R cells, DiscoveRx beta-arrestin luminescence, antagonist mode; active compounds read low
# Procedure, shortened: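 Cells plated overnight at 1500 cells/well, then exposed to library compounds with dopamine controls for 90 minutes at 37 degrees C. DiscoveRx reagent added for 30–60 minutes at room temperature; luminescence read, quantitative HTS format.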
# % is set by controls: 0 for no effect and ±100 for the full control effect.
row,Compound,"max response, negative = inhibition"
1,COc1ccc(C2=Nn3c(nnc3-c3ccc(OC)cc3)SC2)cc1,inconclusive: -37.3%
2,Cc1ccc(CNCc2cc3c(C(C)(C)C)nn(-c4ccccc4)c3[nH]c2=O)cc1,inconclusive: -32.1%
3,O=c1c2cnn(-c3ccccc3)c2nc(-c2cccs2)n1-c1cccc(Cl)c1,inactive: -24.6%
4,O=C(Cc1ccc(Cl)cc1)NCCN1CCCC1,inconclusive: -41%
5,CCC(C(=O)OCCN(CC)CC)c1ccccc1 (stereo unspecified),inconclusive: -35%
6,COc1cc(CN2CCCC(CO)(Cc3ccccc3F)C2)ccc1O (stereo unspecified),inconclusive: -44.5%
7,CC1CC(C)CN(C(=S)Nc2ccc(SC(F)F)cc2)C1 (stereo unspecified),inactive: 5.7%
8,CCC1=C(OC(=O)N(CC)CC)N2C(=O)OC(=NCCc3c[nH]c4ccccc34)[C@]2(Cc2ccccc2)[C@H]2C1=CC[C@H]1C(=O)N(C)C(=O)[C@H]12,inactive: -17.9%
9,C(=C\c1ccccc1)/CN1CCN(C(c2nnnn2-c2ccc3c(c2)OCCO3)C2CC2)CC1 (stereo unspecified),inconclusive: -35%
10,Cc1cccc(C)c1NC(=O)CSc1nnnn1-c1ccc(C(=O)O)cc1,active: -79.1%
11,O=C(NCc1ccc(F)cc1)C(Cc1ccccc1)n1cccc1 (stereo unspecified),inactive: -14.8%
12,C/C=C/c1ccc(OCCCNC(C)CC)c(OC)c1 (stereo unspecified),inconclusive: -49.1%
13,O=C(CN1C(=O)CSc2ncccc21)Nc1cccc(Cl)c1,inconclusive: -46.9%
14,N#CCCN/N=C(\Cc1nc2ccccc2[nH]1)c1ccccc1,inconclusive: -34.1%
15,Oc1c(CN2CCN(c3ccccn3)CC2)cc(Cl)c2cccnc12,active: -128%
16,C/C(=N\NC(=O)c1ccccc1-n1cccc1)c1ccccn1,inconclusive: -43%
17,O=C(NC1CCN(Cc2ccccc2)CC1)c1ccccc1Cl,inconclusive: -47.4%
18,COCC(=O)OCC(=O)Nc1cc([N+](=O)[O-])ccc1Cl,inconclusive: -36.3%
19,Cc1nn(CC(C)C)c(Cl)c1C(=O)N(c1ccc(Cl)cc1F)S(C)(=O)=O,inconclusive: -31.7%
20,Cc1cc(C(F)F)n2nc(C(=O)Nc3sc4c(c3C#N)CCC(C)C4)nc2n1 (stereo unspecified),inconclusive: -41.5%
21,Cc1ccc(NC(=O)CCCc2c[nH]c3ccccc23)nc1,inconclusive: -37.2%
22,COc1ccc(-c2cc(NC=O)c3ncc(-c4cccc(C(F)(F)F)c4)n3c2)c(OC)c1,inactive: -24.1%

row,Compound,"max response, negative = inhibition"
1,O=C(COc1cccc2ccccc12)N1CCN(c2ccccc2)CC1,inactive: 11.1%
2,O=C(Nc1ccc(Cl)cc1)Nc1ccc(N2CCCC2)c(S(=O)(=O)Nc2ccccc2Cl)c1,inconclusive: -44%
3,CCOC(=O)CC(=O)CSc1nc(-c2cccnc2)ccc1C#N,inactive: -15.6%
4,COc1cccc(C(=O)OC2CCN(C)CC2)c1,inconclusive: -31.1%
5,O=C(Nc1ccccc1F)c1ccc(C(=O)c2ccccc2)cc1,active: -72.9%
6,CN1CCN(S(=O)(=O)c2ccc(Nc3cccc(Cl)c3)c([N+](=O)[O-])c2)CC1,inconclusive: -38.5%
7,COC(=O)c1cc(NC(=O)c2cccc([N+](=O)[O-])c2C)ccc1Cl,inconclusive: -32.9%
8,Cc1ccc(C(=O)NCCN2CCCC2)cc1,inconclusive: -41.1%
9,CN(O)/C=c1/ccc2c(n1)C(=O)C=CC=2,inconclusive: -46.1%
10,CCCc1ccc2oc(C(=O)NCCN3CCCC(O)C3)c(C)c2c1 (stereo unspecified),inactive: -1.32%
11,O=C(Nc1ccc(N2CCOCC2)c(Cl)c1)c1ccccc1Cl,active: -53.5%
12,O=C(Nc1ccc(Cl)cc1Cl)C1CCC(=O)N1Cc1ccccc1Cl (stereo unspecified),inactive: -10.8%
13,CC[n+]1c(/C=C/Nc2ccccc2)sc2ccccc21,inconclusive: -41.9%
14,CCc1cccc(C)c1NC(=S)NCc1ccc2[nH]c(C)cc2c1,inconclusive: -32.8%
15,O=C(c1cccnc1)N1CCN(Cc2ccc3c(c2)OCO3)CC1,inconclusive: -35%
16,O=S(=O)(c1ccc(Br)cc1)N1CCCc2ccccc21,inconclusive: -33.2%
17,Cc1occc1-c1nnc(SCC(=O)N2CCN(c3ccccc3)CC2)n1C,inactive: -2.64%
18,O=C(c1ccccc1)N1CCN(C(=O)c2ccccc2)C1c1ccccc1,active: -51%
19,O=C(Nc1ccccc1)c1ccc(NCCN2CCOCC2)c(S(=O)(=O)N2CCOCC2)c1,inconclusive: -40.3%
20,O=C(NNC(=S)Nc1cccc2ccccc12)c1cccc(Br)c1,inconclusive: -31.9%
21,CC1(C)Cc2ccccc2/C(=C/C(=O)N2CCCCCC2)N1,inconclusive: -34.1%
22,O=C(NN1C(=O)/C(=C/c2ccc(O)cc2)SC1=S)c1ccccc1O,inactive: -5.84%

# Laid out differently: results already given
row | Compound | max response, negative = inhibition
18 | O=C(c1ccccc1)N1CCN(C(=O)c2ccccc2)C1c1ccccc1 | active: -51%
19 | O=C(Nc1ccccc1)c1ccc(NCCN2CCOCC2)c(S(=O)(=O)N2CCOCC2)c1 | inconclusive: -40.3%
20 | O=C(NNC(=S)Nc1cccc2ccccc12)c1cccc(Br)c1 | inconclusive: -31.9%
21 | CC1(C)Cc2ccccc2/C(=C/C(=O)N2CCCCCC2)N1 | inconclusive: -34.1%

# Continued.

row,Compound,"max response, negative = inhibition"
1,CCC(C)(C)C1CCc2[nH]nc(C(=O)N/N=C(\C)c3ccco3)c2C1 (stereo unspecified),inconclusive: -39.9%
2,CC(=O)c1cc(NC(=O)c2ccc([N+](=O)[O-])cc2)c(=O)oc1C,inactive: 7.02%
3,COc1ccc(Cl)cc1NC(=O)NCC1CCN(Cc2ccccc2F)CC1,active: -85.7%
4,CC1CN(CC(=O)N2CCc3[nH]c4ccccc4c3C2)CC(C)O1 (stereo unspecified),inconclusive: -41.6%
5,COC(=O)[C@@]12C[C@@H](CC(=O)N3CCN(C(=O)C4CC4)CC3)C(=O)N(Cc3ccco3)C1=CCC(C)(C)C2,inactive: 0.526%
6,O=C(N/N=C/c1ccc(Cl)c([N+](=O)[O-])c1)c1ccc2nc[nH]c2c1,inconclusive: -44.3%
7,COc1ccc(CN2C(=O)C(Cc3ccccc3)Nc3ncnc(N4CCN(c5ccccc5)CC4)c32)cc1 (stereo unspecified),active: -111%
8,O=C(C1CC1)N1CCc2cc(Br)cc(S(=O)(=O)NCc3ccco3)c21,inconclusive: -47%
9,CC(C)(C)CN1CCNC(=O)C1CC(=O)N1CCOc2ccccc2C1 (stereo unspecified),inconclusive: -35.6%
10,COc1cc(C(=O)N/N=C/C2CC=CCC2)cc(OC)c1OC (stereo unspecified),inconclusive: -34.8%
11,CC1=C(C)CS(=O)N(S(=O)(=O)c2ccc(Cl)cc2)C1 (stereo unspecified),active: -88.4%
12,O=C1CSC(=S)N1,inactive: 25.9%
13,O=C(C[C@H]1C[C@H](C(=O)N2CCCCC2)[C@@]2(CCc3ccccc3)c3[nH]c4cc(-c5ccco5)ccc4c3CCN2C1=O)NCc1ccco1,inconclusive: -38.3%
14,O=C1CN(c2nnnn2-c2ccccc2)CCN1,inconclusive: -31.4%
15,Cc1ccc(S(=O)(=O)N(C)C)cc1NC(=O)COC(=O)c1ccc2c(c1)OCCO2,inconclusive: -37.3%
16,CCc1cc2c(-c3ccccc3)cc(=O)oc2cc1OC(=O)c1cccs1,inactive: 4.98%
17,Cc1ccc(C2C3=C(CCCC3=O)Nc3[nH]c(=S)[nH]c(=O)c32)cc1 (stereo unspecified),inconclusive: -38.6%
18,CCn1c(=O)cc(OCC(=O)NCCCN2CC(C)CC(C)C2)c2ccccc21 (stereo unspecified),inconclusive: -33.5%
19,CCCNC(=O)C1(C)CCCN(Cc2cccc3ccccc23)C1 (stereo unspecified),inactive: -1.59%
20,CC(Oc1ccc(Br)cc1)C(=O)N1CCc2ccccc21 (stereo unspecified),inconclusive: -43%
21,CCOc1cc(/C=C2\SC(=S)N(NS(=O)(=O)c3ccc(C)cc3)C2=O)ccc1O,inconclusive: -31.9%
22,CCC1(c2ccccc2)NC(=O)N(CC(=O)NNC(=O)c2ccoc2C)C1=O (stereo unspecified),inactive: 7.54%

row,Compound,"max response, negative = inhibition"
1,CCN1CCN(S(=O)(=O)c2ccc(Cl)c(C(=O)N(C)Cc3ccc(C(C)(C)C)cc3)c2)CC1,inconclusive: -45.5%
2,CC(C)c1ccc(NC(=O)N2CCc3nc(NCc4cccc(Oc5ccccc5)c4)ncc3C2)cc1,inconclusive: -42.1%
3,CC1(C)CC(=O)C=C(/C=C/c2ccccc2)C1,inconclusive: -41.1%
4,CC(=NCc1ccco1)c1c(O)n(C2CCCCC2)c(=O)[nH]c1=O,inconclusive: -30.4%
5,O=C1CN(C(=O)COC(=O)CCc2ccccc2O)c2ccccc2N1,inconclusive: -43%
6,O=C(Nc1cc(Cl)cc(Cl)c1)c1ccc(Cn2c(=O)[nH]c3ccsc3c2=O)cc1,inactive: -9.98%
7,O=C1c2cccc3c(Nc4ccccc4Cl)c([N+](=O)[O-])cc(c23)C(=O)N1CCO,inconclusive: -37.8%
8,Cn1cc(Br)c(C(=O)Nc2c(F)c(F)c(F)c(F)c2F)n1,inconclusive: -34.2%
9,CC(Cc1c[nH]c2ccccc12)C(=O)NCc1ccco1 (stereo unspecified),inconclusive: -46%
10,CC1Cc2cc(/C(O)=C3\C(=O)C(=O)N(CCN(C)C)C3c3ccccc3F)ccc2O1 (stereo unspecified),inconclusive: -34.3%
11,CCNC(=O)C1(C)CCN1CCC(=O)c1ccc(Br)cc1 (stereo unspecified),inactive: 0%
12,COc1cc(Nc2c3c(nc4ccccc24)CCC3)cc(OC)c1OC,inconclusive: -42.3%
13,O=C(C1CC1)N1c2ccccc2Sc2ccccc21,inconclusive: -31.2%
14,COc1ccc(/C=C2\CCCC3C2=NN(C(=O)COC(=O)CNC(=O)c2ccccc2)C3c2ccc(OC)cc2)cc1 (stereo unspecified),inactive: -14.3%
15,O=C(CCn1c(=S)oc2ccccc21)NCCC1=CCCCC1,inconclusive: -31.1%
16,COc1ccc(OC)c(C2C(C#N)=C(N)Oc3c2c(C)nn3-c2ccc(C)cc2)c1 (stereo unspecified),inconclusive: -30.1%
17,COc1ccc(C(=O)NC(=S)Nc2ccc3[nH]c(=O)[nH]c3c2)c(OC)c1,inactive: -12.5%
18,O=S1(=O)c2ccc(Br)cc2N2CCC[C@@H]2CN1Cc1ccc(Cl)cc1,inconclusive: -32.5%
19,C[C@H]1CN([C@@H](C)CO)S(=O)(=O)c2ccc(Br)cc2O[C@H]1CN(C)C(=O)c1cnccn1,inactive: -8.27%
20,Cn1cnnc1Sc1ccc(/C=C/C(=O)c2ccc(O)cc2)cc1[N+](=O)[O-],inconclusive: -37.9%
